PubChem BioAssay AID1224827, NIAID, 2016
This is an unselected part of about 3,800 deposited reagents. Of all reagents, about 2,200 (57%) are marked active. 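Active means a strong reporter change in either direction; calls are per siRNA, not per gene; qiagen siRNAs gave weaker effects.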 Unmarked entries are inactive. Further read-outs or replicates are left out here.

- Aim: 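Identify regulators of the macrophage TNF-alpha response to bacterial LPS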 (follow-up of hits)
- Cells: RAW264.7 G9 mouse macrophage reporter clone
- Reagent: single siRNA against mouse genes, 100 nM siRNA
- Timing: siRNA for 2 days, then LPS about 16 h
- Challenge: bacterial lipopolysaccharide (LPS), 10 ng/ml, cells fixed after overnight (about 16 h) stimulation
- Read-out: 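Imaged nuclear TNF reporter intensity, background removed, scaled per plate and to non-targeting control wells, as z-scores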
- Direction: TNF reporter z-score, mean: higher = stronger Tnf promoter reporter signal
- Call rule: 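An siRNA is called active when its mean z-score over replicates is at least +2 or at most -2; control wells get no call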

Cetn3 [SID315483948]: TNF reporter z-score, mean = -0.873
Cetn3 [SID315483949]: TNF reporter z-score, mean = -2.89 (active)
Cetn3 [SID315483950]: TNF reporter z-score, mean = -3.75 (active)
Cetn3 [SID315483951]: TNF reporter z-score, mean = 2.4 (active)
Cetn3 [SID315483952]: TNF reporter z-score, mean = 2.08 (active)
Cetn3 [SID315483953]: TNF reporter z-score, mean = -2.78 (active)
Eif3e [SID315484428]: TNF reporter z-score, mean = 2.05 (active)
Eif3e [SID315484429]: TNF reporter z-score, mean = 2.51 (active)
Eif3e [SID315484430]: TNF reporter z-score, mean = -1.85
Eif3e [SID315484431]: TNF reporter z-score, mean = -0.0841
Eif3e [SID315484432]: TNF reporter z-score, mean = -0.717
Eif3e [SID315484433]: TNF reporter z-score, mean = -2.91 (active)
Disp2 [SID315488106]: TNF reporter z-score, mean = 3.64 (active)
Disp2 [SID315488107]: TNF reporter z-score, mean = -0.0029
Disp2 [SID315488108]: TNF reporter z-score, mean = -2.94 (active)
Disp2 [SID315488109]: TNF reporter z-score, mean = 2.79 (active)
Disp2 [SID315488110]: TNF reporter z-score, mean = 2.5 (active)
Disp2 [SID315488111]: TNF reporter z-score, mean = -2.43 (active)
Klf12 [SID315484449]: TNF reporter z-score, mean = -2.38 (active)
Klf12 [SID315484450]: TNF reporter z-score, mean = -2.62 (active)
Klf12 [SID315484451]: TNF reporter z-score, mean = -5.05 (active)
Arhgef1 [SID315484491]: TNF reporter z-score, mean = -1.4
Arhgef1 [SID315484492]: TNF reporter z-score, mean = -2.99 (active)
Arhgef1 [SID315484493]: TNF reporter z-score, mean = -5.02 (active)
Arhgef1 [SID315484494]: TNF reporter z-score, mean = 3.34 (active)
Arhgef1 [SID315484495]: TNF reporter z-score, mean = 0.275
Arhgef1 [SID315484496]: TNF reporter z-score, mean = -0.549

A stretch from the list above, as a working copy:
Eif3e [SID315484432]: TNF reporter z-score, mean = -0.717
Eif3e [SID315484433]: TNF reporter z-score, mean = -2.91 (active)
Disp2 [SID315488106]: TNF reporter z-score, mean = 3.64 (active)
Disp2 [SID315488107]: TNF reporter z-score, mean = -0.0029
Disp2 [SID315488108]: TNF reporter z-score, mean = -2.94 (active)
Disp2 [SID315488109]: TNF reporter z-score, mean = 2.79 (active)
Disp2 [SID315488110]: TNF reporter z-score, mean = 2.5 (active)
Disp2 [SID315488111]: TNF reporter z-score, mean = -2.43 (active)

Continued:
Tsg101 [SID315485046]: TNF reporter z-score, mean = 0.0203
Tsg101 [SID315485047]: TNF reporter z-score, mean = -2.68 (active)
Tsg101 [SID315485048]: TNF reporter z-score, mean = -2.97 (active)
Tsg101 [SID315485049]: TNF reporter z-score, mean = 4.11 (active)
Tsg101 [SID315485050]: TNF reporter z-score, mean = 2.97 (active)
Tsg101 [SID315485051]: TNF reporter z-score, mean = 3.14 (active)
Hfe [SID315484299]: TNF reporter z-score, mean = 10.8 (active)
Hfe [SID315484300]: TNF reporter z-score, mean = -3.52 (active)
Hfe [SID315484301]: TNF reporter z-score, mean = -3.81 (active)
Hfe [SID315484302]: TNF reporter z-score, mean = 4.46 (active)
Hfe [SID315484303]: TNF reporter z-score, mean = -0.138
Hfe [SID315484304]: TNF reporter z-score, mean = -0.885
Capns1 [SID315483867]: TNF reporter z-score, mean = -0.378
Capns1 [SID315483868]: TNF reporter z-score, mean = -3.93 (active)
Capns1 [SID315483869]: TNF reporter z-score, mean = -5.22 (active)
Capns1 [SID315483870]: TNF reporter z-score, mean = -0.814
Capns1 [SID315483871]: TNF reporter z-score, mean = -1.11
Capns1 [SID315483872]: TNF reporter z-score, mean = -0.695
